These are yes or no findings as the source states them, for the method shown. Binding seen in cells or lysates may run through a third protein. A yes stands for co-enrichment or nearness to the bait. Other partners may have been found.

B1: Minichromosome Maintenance Complex Component 3 (protein, UniProt Q5ZMN2 1-812)
chain: MAAPAGGLGDAELREAQRDYLDFLDDEEDQGVYHGKVRDMISDNQYRLLVNINDLRRRNEKRANRLLSNAFEELIAFQRALKDFVASVDATYAKQYEDFYIGLEGSFGSKHVSPRTLTACFLSCIVCVEGIVTKCSLIRPKVVRSVHYCPATKKTIERRYTDLTSLDAFPSSTVYPTKDEENNPLETEYGLSVYKDHQTISIQEMPEKAPAGQLPRSVDVILDDDLVDKVKPGDRIQVVGTYRCLPGKKGGYTSGTFRTILIACHIKQMSKDARPLYSANDVAKIKRFSKSRSKDIFNQLARSLAPSIHGHEFIKKALLCMLLGGVEKVLENGSRIRGDINILLIGDPSVAKSQLLRYVLGTAPRAVGTTGRGSSGVGLTAAVTTDQETGERRLEAGAMVLADRGVVCIDEFDKMSDIDRTAIHEVMEQGRVTIAKAGIHARLNSRCSVLAAANPVYGRYDQYKTPMENIGLQDSLLSRFDLLFIMLDQMDSEQDREISDHVLRMHRYRNPNEQDGDAMPLGSAVEILATDDPDFAQEEEQELQVYEKHDDLLHGPNRRKEKIVSMEFMRKYIHVAKMIKPVLTQESADYIAEEYSSLRSQNQMNSDIARTSPVTARTLETLIRLSTAHAKARMSKTVDLQDAEAALELVQFAYFKKVLEKEKKRKKQVEDDSETEKEEEEEETQPEKEGRKQRRKKARTEGEEESYDPYDFSDAEQEMPEVQAHTPKTPESSATGEAKKPELADPRLKAFKAALLEVFKSSHAQSVGLKNVMESINRDNPEPFSLAGVKVALAHMQDDNQIMVSDDIIFLI
B2: Peroxiredoxin-1 (protein, UniProt P0CB50 1-199)
chain: MSSGKAFIGKPAPDFTATAVMPDGQFKDIKLSDYRGKYVVFFFYPLDFTFVCPTEIIAYSDRADEFKKINCEIIGASVDSHFCHLAWINTPKKQGGLGTMKIPLVSDTKRVIAKDYGVLKEDEGIAYRGLFIIDEKGILRQITINDLPVGRSVDETLRLVQAFQFTDKHGEVCPAGWKPGSDTIKPDVQKSKEYFSKQK
B3: chaperonin-containing TCP-1 subunit 7 (CCT7) (protein, UniProt Q5ZJK8 1-553)
chain: MMPTPVILLKEGTDTSQGIPQLVSNINACQVIAEAVRTTLGPRGMDKLIVDDRGKATISNDGATILKLLDVVHPAAKTLVDIAKSQDAEVGDGTTSVTLLAAEFLKQVKPYVEEGLHPQIIIRAFRTATQLAVNKIKDIAVSVKKEDKDEQRSLLEKCAATALSSKLISQSKEFFSKMVVDAVMMLDDLLQLKMIGIKKVQGGALEDSQLVAGVAFKKTFSYAGFEMQPKKYQSPKIALLNVELELKAEKDNAEVRVNTVEDYQAIVDAEWNILYDKLDKIHKSGAKVVLSKLPIGDVATQYFADRDMFCAGRVPEEDLKRTMMACGGSIQTSVNALSDDVLGRCELFEEIQIGGDRYNFFTGCPKAKTCTIILRGGAEQFMEETERSLHDAIMIVRRAIKNDSVVAGGGAIEMELSKYLRDYSRTIPGKQQLLIGAYAKALEIIPRQLCDNAGFDATNILNKLRAKHAQGGMWYGVDVNNEDIADNFEACVWEPAIVRINALTAASEAACLIVSVDETIKNPRSTVDAPPGGRGRGRGQTPQPLRPRSVALS

The target in the experiment is FAdV-4 hexon protein (flag-TST-hexon) (fowl adenovirus serotype 4 (FAdV-4)). Description: affinity purification with mass spectrometry; tandem affinity purification (TST resin, biotin elution; then anti-FLAG magnetic beads, 3xFLAG peptide elution) of flag-TST-hexon from LMH cell lysate, 4°C; flag empty vector as control; eluate digested for MS.
Consider B1, for which the binding result was “binds”.

As for B2, the binding result was “binds”.

On to B3, for which the binding entry is “binds”.

These data come from publication PMC12170584.
